The supplement of paper PMC10849652
The list shows a part of the results.

The chains behind the UniProt entries cited, without tags or fusion partners. Where a name states a change or a piece, a line headed by the entry shows the natural chain unless it says otherwise.
UniProt B2RUZ4: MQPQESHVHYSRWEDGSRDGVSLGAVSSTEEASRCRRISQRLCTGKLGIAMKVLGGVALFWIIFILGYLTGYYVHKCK
UniProt O00193: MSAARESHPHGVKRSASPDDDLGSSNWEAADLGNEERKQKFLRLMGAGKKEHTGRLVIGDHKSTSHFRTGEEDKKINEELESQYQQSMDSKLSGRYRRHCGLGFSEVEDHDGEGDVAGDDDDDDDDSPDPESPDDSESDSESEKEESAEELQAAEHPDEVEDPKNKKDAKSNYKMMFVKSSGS
UniProt Q00796: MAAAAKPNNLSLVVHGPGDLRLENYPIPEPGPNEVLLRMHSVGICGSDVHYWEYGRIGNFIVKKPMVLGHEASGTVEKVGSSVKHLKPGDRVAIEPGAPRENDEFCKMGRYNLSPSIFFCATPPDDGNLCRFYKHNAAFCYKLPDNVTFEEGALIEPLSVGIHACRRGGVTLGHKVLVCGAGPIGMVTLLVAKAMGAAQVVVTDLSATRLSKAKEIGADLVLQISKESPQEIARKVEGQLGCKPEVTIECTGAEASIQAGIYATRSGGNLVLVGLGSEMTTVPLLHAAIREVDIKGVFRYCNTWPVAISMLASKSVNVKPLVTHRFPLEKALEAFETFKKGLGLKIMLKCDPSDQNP
UniProt Q86US8: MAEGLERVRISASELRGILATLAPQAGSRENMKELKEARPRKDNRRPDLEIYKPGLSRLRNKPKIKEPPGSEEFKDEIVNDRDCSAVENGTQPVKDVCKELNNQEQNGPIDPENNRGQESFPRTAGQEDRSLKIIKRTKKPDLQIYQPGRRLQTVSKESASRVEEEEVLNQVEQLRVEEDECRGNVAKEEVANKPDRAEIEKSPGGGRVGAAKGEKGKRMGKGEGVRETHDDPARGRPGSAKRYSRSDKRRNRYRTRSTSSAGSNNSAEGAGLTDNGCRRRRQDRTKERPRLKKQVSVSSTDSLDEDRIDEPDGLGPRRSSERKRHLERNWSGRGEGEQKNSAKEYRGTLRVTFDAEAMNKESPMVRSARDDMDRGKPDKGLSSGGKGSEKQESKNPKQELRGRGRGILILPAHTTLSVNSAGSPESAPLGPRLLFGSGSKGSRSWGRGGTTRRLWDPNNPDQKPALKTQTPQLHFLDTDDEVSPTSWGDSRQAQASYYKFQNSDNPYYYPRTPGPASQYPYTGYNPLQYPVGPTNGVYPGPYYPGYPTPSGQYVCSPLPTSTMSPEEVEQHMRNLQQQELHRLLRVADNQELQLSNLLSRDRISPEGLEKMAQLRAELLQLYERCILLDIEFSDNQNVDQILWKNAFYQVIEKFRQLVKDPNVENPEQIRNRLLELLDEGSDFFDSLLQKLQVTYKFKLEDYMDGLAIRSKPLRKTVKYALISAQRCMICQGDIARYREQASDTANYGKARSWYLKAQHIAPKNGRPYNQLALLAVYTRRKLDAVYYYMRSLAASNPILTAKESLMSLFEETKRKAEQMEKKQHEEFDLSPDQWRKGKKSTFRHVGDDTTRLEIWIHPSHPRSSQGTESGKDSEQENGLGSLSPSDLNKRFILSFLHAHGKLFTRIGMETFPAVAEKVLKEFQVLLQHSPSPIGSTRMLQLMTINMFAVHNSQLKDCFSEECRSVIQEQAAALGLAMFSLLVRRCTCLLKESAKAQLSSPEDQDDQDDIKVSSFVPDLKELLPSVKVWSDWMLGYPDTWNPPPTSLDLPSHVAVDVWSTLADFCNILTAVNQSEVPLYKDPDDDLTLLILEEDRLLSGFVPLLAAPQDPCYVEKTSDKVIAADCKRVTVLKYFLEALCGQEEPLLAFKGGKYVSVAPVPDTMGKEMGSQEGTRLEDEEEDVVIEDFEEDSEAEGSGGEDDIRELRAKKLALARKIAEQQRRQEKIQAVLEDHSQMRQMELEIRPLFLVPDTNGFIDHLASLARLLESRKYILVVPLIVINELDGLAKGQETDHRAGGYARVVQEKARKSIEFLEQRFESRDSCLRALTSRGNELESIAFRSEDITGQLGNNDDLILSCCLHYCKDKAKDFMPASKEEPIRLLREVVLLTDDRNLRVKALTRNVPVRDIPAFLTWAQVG
UniProt Q9UMY4: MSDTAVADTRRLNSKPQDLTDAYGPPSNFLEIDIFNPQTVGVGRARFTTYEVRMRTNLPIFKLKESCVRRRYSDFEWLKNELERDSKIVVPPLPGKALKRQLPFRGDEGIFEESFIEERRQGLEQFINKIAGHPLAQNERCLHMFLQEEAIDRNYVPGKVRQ
UniProt O60641: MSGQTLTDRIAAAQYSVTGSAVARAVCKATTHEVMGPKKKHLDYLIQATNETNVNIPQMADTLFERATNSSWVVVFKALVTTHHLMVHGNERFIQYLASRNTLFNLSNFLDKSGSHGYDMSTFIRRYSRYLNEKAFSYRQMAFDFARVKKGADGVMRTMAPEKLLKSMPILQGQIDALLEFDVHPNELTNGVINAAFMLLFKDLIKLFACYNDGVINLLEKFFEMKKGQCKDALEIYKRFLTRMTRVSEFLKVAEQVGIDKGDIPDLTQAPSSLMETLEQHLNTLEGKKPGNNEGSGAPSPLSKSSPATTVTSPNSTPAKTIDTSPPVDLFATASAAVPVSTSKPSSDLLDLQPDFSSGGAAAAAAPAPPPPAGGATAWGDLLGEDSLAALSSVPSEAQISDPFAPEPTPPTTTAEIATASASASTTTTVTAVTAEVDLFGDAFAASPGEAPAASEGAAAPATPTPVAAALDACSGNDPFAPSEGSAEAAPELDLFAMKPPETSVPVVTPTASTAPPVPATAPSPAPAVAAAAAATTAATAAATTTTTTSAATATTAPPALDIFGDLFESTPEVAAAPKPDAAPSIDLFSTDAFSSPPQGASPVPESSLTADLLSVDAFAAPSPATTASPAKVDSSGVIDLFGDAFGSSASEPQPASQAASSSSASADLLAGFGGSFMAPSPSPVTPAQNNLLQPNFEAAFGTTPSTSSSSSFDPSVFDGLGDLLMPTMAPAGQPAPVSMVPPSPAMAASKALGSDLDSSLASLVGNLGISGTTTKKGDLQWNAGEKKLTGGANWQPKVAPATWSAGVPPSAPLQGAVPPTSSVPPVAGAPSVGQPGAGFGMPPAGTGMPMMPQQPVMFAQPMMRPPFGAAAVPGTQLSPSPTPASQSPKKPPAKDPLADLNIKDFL
UniProt Q96CW6: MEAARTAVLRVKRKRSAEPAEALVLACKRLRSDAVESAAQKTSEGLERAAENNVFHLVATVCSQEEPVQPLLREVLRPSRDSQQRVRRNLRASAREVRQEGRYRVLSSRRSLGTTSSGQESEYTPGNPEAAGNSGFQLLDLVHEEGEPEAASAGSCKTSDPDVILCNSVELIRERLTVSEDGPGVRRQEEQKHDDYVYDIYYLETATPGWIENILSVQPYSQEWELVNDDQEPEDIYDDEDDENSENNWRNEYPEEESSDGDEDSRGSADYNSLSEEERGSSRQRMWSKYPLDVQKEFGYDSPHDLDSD
UniProt O75971: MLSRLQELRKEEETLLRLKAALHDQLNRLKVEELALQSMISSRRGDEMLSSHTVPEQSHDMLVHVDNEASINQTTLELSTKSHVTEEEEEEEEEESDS
UniProt O14508, whole entry, looked up: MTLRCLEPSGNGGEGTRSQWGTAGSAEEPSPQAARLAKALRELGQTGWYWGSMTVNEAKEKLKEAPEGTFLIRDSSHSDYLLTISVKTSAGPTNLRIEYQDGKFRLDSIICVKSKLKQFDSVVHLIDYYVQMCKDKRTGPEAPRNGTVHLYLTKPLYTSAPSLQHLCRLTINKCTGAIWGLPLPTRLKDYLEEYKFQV
UniProt P52788: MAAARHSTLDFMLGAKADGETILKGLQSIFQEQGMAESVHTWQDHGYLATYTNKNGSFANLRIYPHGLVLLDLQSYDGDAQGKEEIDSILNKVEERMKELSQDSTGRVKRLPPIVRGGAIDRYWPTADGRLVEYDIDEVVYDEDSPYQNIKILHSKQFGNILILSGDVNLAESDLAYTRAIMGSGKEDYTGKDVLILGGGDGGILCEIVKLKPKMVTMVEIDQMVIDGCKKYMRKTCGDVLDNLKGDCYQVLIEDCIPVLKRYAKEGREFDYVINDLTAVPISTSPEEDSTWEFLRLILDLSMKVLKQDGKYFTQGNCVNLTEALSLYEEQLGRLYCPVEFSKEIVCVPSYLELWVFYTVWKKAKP
UniProt Q13485: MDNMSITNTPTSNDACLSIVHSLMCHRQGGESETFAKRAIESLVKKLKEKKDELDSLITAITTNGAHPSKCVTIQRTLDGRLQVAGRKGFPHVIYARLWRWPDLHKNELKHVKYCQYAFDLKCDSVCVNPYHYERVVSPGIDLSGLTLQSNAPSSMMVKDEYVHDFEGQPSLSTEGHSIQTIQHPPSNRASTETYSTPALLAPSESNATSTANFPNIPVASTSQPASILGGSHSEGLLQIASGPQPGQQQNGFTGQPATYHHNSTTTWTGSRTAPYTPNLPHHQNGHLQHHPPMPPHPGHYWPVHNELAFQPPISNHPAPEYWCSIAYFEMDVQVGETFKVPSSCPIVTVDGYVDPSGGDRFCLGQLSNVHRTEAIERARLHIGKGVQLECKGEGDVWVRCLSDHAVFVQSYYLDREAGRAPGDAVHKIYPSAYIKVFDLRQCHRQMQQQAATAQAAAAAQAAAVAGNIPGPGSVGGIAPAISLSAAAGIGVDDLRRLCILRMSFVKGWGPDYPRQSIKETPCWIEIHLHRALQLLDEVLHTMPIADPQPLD
UniProt Q9H4L7: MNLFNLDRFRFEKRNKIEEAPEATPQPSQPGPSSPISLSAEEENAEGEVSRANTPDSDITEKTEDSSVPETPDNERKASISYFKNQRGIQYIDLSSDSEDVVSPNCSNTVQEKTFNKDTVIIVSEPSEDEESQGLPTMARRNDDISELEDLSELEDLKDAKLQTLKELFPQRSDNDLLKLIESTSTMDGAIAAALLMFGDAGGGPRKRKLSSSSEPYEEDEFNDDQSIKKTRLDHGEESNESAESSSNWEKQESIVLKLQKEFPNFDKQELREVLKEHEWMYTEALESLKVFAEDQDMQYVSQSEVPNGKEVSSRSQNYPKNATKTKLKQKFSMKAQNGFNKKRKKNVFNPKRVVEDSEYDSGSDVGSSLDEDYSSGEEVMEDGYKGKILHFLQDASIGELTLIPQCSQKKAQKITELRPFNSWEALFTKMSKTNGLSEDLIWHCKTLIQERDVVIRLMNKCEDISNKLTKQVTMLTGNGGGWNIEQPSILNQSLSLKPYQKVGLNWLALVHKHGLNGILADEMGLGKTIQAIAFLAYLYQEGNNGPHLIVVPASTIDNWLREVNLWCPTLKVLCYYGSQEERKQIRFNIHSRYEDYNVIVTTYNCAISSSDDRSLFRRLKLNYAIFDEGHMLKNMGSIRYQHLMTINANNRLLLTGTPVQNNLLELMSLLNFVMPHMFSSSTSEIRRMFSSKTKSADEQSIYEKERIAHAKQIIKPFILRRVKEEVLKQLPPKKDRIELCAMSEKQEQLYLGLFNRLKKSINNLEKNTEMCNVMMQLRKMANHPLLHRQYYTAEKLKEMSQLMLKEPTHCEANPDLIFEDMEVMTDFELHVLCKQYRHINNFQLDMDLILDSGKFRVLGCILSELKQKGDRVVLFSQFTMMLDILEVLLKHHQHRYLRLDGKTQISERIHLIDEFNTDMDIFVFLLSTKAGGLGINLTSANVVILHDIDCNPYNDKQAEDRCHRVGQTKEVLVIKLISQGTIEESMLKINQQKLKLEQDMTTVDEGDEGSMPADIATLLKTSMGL
UniProt Q8TEV9: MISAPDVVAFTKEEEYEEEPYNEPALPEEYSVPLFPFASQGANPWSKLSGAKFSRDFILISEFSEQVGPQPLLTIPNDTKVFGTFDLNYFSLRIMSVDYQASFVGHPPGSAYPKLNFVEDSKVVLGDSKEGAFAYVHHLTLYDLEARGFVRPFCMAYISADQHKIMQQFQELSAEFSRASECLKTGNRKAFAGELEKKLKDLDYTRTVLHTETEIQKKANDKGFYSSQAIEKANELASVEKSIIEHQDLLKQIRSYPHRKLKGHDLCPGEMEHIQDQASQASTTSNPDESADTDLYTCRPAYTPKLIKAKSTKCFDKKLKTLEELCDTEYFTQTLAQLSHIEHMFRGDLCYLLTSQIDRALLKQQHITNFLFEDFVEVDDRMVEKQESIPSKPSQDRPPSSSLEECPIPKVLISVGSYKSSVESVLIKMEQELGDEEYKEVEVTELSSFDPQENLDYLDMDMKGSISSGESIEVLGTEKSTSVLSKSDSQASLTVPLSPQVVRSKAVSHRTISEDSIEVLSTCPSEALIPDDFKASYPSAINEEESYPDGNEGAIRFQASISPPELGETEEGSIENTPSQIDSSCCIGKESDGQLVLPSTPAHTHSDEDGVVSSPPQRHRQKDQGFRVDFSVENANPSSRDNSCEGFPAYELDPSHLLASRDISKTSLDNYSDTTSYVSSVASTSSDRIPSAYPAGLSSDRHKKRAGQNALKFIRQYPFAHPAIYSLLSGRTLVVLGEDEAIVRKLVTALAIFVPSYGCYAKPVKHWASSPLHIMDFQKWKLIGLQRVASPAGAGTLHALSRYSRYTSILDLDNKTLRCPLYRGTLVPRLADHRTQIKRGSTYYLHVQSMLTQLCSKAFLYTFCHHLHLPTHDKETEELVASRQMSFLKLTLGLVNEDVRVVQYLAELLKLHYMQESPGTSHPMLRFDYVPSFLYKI

The targets below were run with Cc1cn(-c2cc(NC(=O)c3ccc(C)c(Nc4nccc(-c5cccnc5)n4)c3)cc(C(F)(F)F)c2)cn1 [nilotinib] (assay: log2 fold change, soluble protein after heating vs DMSO (PISA); higher = thermal stabilisation; K562 cells, 10 uM, 30 min; active = over 0.2 and 3.5 SD of the protein, either way, in both replicates (recomputed)).
Procedure, shortened: (§1)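 Soluble protein was defined as the supernatant after 21,000xg for 90 min. It came from K562 cells at 2×10^6 cells/mL given 10 μM compound for 30 min, heated in aliquots for 3 min across 48°C-58°C, pooled, and extracted in PBS with 0.5% NP-40 at 4°C, and was quantified by TMTpro 16plex LC-MS/MS with equalised channel sums. Thermal stability against control samples, from duplicates, is reported as log2 fold change.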

log2 fold change, inactive:
SORBS1 isoform 12 (UniProt Q9BX66) 0.036, SORBS3 (UniProt O60504) 0.131, SLCO4A1 (UniProt Q96BD0) 0.02, SON isoform 9 (UniProt P18583) 0.176, SMIM1 (UniProt B2RUZ4) -0.017, SMAP (UniProt O00193) -0.004, SORD (UniProt Q00796) 0.014, SPAG7 (UniProt O75391) 0.01, SMIM20 isoform 2 (UniProt Q8N5G0) -0.037, SMIM8 (UniProt Q96KF7) 0.019, SMG6 (UniProt Q86US8) -0.017, SNX8 (UniProt Q9Y5X2) 0.004, SLC9A1 (UniProt P19634) 0.025, SNX12 isoform 1 (UniProt Q9UMY4) -0.038, SLK isoform 2 (UniProt Q9H2G2) -0.041, SNAP91 (UniProt O60641) 0, SLC7A6OS (UniProt Q96CW6) -0.019, SNX16 (UniProt P57768) -0.001, SNAPC5 (UniProt O75971) -0.197, SLC7A6 (UniProt Q92536) 0.046, SOCS2 (UniProt O14508) 0.016, SNX1 (UniProt Q13596) -0.133, SMS (UniProt P52788) 0.018, SMAD5 (UniProt Q99717) -0.062, SOX7 isoform 2 (UniProt Q9BT81) -0.066, SMARCA2 (UniProt P51531) -0.007, SMG1 (UniProt Q96Q15) 0.03, SMAD4 (UniProt Q13485) -0.002, SMIM15 (UniProt Q7Z3B0) 0.141, SLMAP (UniProt Q14BN4) -0.062, SMARCAD1 isoform 2 (UniProt Q9H4L7) 0.049, SMCR8 (UniProt Q8TEV9) -0.006, SMARCE1 (UniProt Q969G3) -0.191

Each target was assayed with Cc1nc(Nc2n[nH]c3c2CN(C(=O)N[C@H](CN(C)C)c2ccccc2)C3(C)C)c2sccc2n1 in the same assay as above.
Procedure, shortened: as §1

log2 fold change, inactive:
SORBS1 isoform 12 (UniProt Q9BX66) -0.098, SORBS3 (UniProt O60504) 0.048, SLCO4A1 (UniProt Q96BD0) -0.002, SON isoform 9 (UniProt P18583) -0.335, SMIM1 (UniProt B2RUZ4) 0.074, SMAP (UniProt O00193) 0.006, SORD (UniProt Q00796) 0, SPAG7 (UniProt O75391) -0.008, SMIM20 isoform 2 (UniProt Q8N5G0) -0.001, SMIM8 (UniProt Q96KF7) 0.002, SMG6 (UniProt Q86US8) 0.025, SNX8 (UniProt Q9Y5X2) 0.037, SLC9A1 (UniProt P19634) 0.027, SNX12 isoform 1 (UniProt Q9UMY4) -0.016, SLK isoform 2 (UniProt Q9H2G2) -0.169, SNAP91 (UniProt O60641) -0.098, SLC7A6OS (UniProt Q96CW6) -0.035, SNX16 (UniProt P57768) 0.059, SNAPC5 (UniProt O75971) 0.106, SLC7A6 (UniProt Q92536) 0.008, SOCS2 (UniProt O14508) 0.031, SNX1 (UniProt Q13596) 0, SMS (UniProt P52788) 0.013, SMAD5 (UniProt Q99717) -0.005, SOX7 isoform 2 (UniProt Q9BT81) 0.362, SMARCA2 (UniProt P51531) -0.054, SMG1 (UniProt Q96Q15) -0.061, SMAD4 (UniProt Q13485) 0, SMIM15 (UniProt Q7Z3B0) -0.026, SLMAP (UniProt Q14BN4) -0.16, SMARCAD1 isoform 2 (UniProt Q9H4L7) -0.056, SMCR8 (UniProt Q8TEV9) 0, SMARCE1 (UniProt Q969G3) 0.16

What follows are targets tested with Cc1nc(Nc2ncc(C(=O)Nc3c(C)cccc3Cl)s2)cc(N2CCN(CCO)CC2)n1 [dasatinib] in the same assay as above.
Procedure, shortened: as §1

log2 fold change, inactive:
SORBS1 isoform 12 (UniProt Q9BX66) -0.02, SON isoform 9 (UniProt P18583) 0.062, SMIM1 (UniProt B2RUZ4) 0.035, SMAP (UniProt O00193) 0.033, SORD (UniProt Q00796) 0.016, SPAG7 (UniProt O75391) 0.004, SMDT1 (UniProt Q9H4I9) 0.005, SMIM20 isoform 2 (UniProt Q8N5G0) 0.012, SMIM8 (UniProt Q96KF7) -0.043, SMG6 (UniProt Q86US8) -0.027, SMPD4 isoform 2 (UniProt Q9NXE4) -0.285, SNX8 (UniProt Q9Y5X2) -0.052, SMARCA4 (UniProt P51532) 0.118, SLC9A1 (UniProt P19634) 0.001, SNX12 isoform 1 (UniProt Q9UMY4) -0.043, SMYD2 (UniProt Q9NRG4) -0.097, SLK isoform 2 (UniProt Q9H2G2) -0.085, SNAP91 (UniProt O60641) -0.054, SLC7A6OS (UniProt Q96CW6) 0.004, SMG9 (UniProt Q9H0W8) -0.164, SNX16 (UniProt P57768) -0.05, SNAPC5 (UniProt O75971) -0.009, SLC7A6 (UniProt Q92536) 0.04, SOCS2 (UniProt O14508) -0.004, SNX1 (UniProt Q13596) -0.191, SLC8B1 (UniProt Q6J4K2) -0.012, SMS (UniProt P52788) 0.015, SMAD5 (UniProt Q99717) -0.192, SOX7 isoform 2 (UniProt Q9BT81) 0.181, SMARCA1 (UniProt P28370) -0.114, SMG1 (UniProt Q96Q15) -0.266, SMAD4 (UniProt Q13485) 0.011, SMIM15 (UniProt Q7Z3B0) 0.004, SLMAP (UniProt Q14BN4) 0.007, SMARCAD1 isoform 2 (UniProt Q9H4L7) -0.131, SMCR8 (UniProt Q8TEV9) -0.068, SMARCE1 (UniProt Q969G3) -0.07
